# Assay results as given in PubChem BioAssay AID504834 (National Center for Advancing Translational Sciences (NCATS), 2011).
# Several values for one entry are separate records, joined by “and”; a condition that tells them apart may be missing. Equal values may be shown once. Screen size: about 320,000 compounds; about 22,000 (6.9%) were called active. This list was built around the results that the source calls inconclusive (neither active nor inactive); the mix of calls is not that of the screen. Calls come from the whole dose curve; as a rule, active = well fitted inhibition curve with a large enough effect; inconclusive = small, poorly fitted or top-dose-only effect, or another doubt; inactive = no such curve, though single readings can be large or run the other way. Potencies of inconclusive entries are doubtful fits and often do not repeat.
# Experiment: Primary qHTS for delayed death inhibitors of the malarial parasite plastid, 96 hour incubation
# Conditions: P. falciparum luciferase reporter growth; series mostly up to 28.7 µM
# Outline: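 Delayed-death screen, second-generation endpoint: infected erythrocytes, 2% hematocrit, 0.05% parasitemia final; 96 hours at 37 C, 5% CO2; luciferase detection reagent; luminescence decrease equals reduced growth.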
# Potency is the fitted concentration of half-maximal effect.
row,SMILES,Potency
1,Cc1ccnc(NS(=O)(=O)c2ccc(NC(=O)C3CCCCC3C(=O)O)cc2)n1 (stereo not given),active: 2.94 µM
2,O=C1Nc2ccc([N+](=O)[O-])cc2OC1CCN1CCN(c2ccccc2)CC1 (stereo not given),"inconclusive: 10.4 µM [inhibitor, single point]"
3,O=c1c2ccccc2ncn1-c1ccc([N+](=O)[O-])cc1Cl,"inconclusive: 9.28 µM [inhibitor, partial curve, poor fit]"
4,COc1ccc(CCn2nnnc2C(CC(C)C)N2CCC(C(N)=O)CC2)cc1OC (stereo not given),active: 11.7 µM
5,CCOC(=O)C1=C(N)OC(C)=C(C#N)C1c1ccco1 (stereo not given),"inconclusive: 11.7 µM [inhibitor, single point]"
6,Cc1ccc(CN2CCCC(C(=O)c3sccc3C)C2)o1 (stereo not given),"inconclusive: 18.5 µM [inhibitor, single point]"
7,Cc1ccc(N(C)S(=O)(=O)c2c(C)[nH]c(C)c2C(=O)N2CCCC2)cc1,"inconclusive: 13.1 µM [inhibitor, single point]"
8,CC(C)OC(=O)C1C2C=CC3(CN(C(C)c4ccc(Br)cc4)C(=O)C13)O2 (stereo not given),active: 10.4 µM
9,COc1ccccc1-c1nnc2sc(COc3ccc(Cl)cc3)nn12,"inconclusive: 0.0037 µM [inhibitor, full curve, poor fit]"
10,CCc1ccccc1S(=O)(=O)Cc1ccc(C(=O)NCc2ccc3c(c2)OCO3)o1,"inconclusive: 18.5 µM [inhibitor, single point]"
11,CCOC(=O)c1c(C)[nH]c2c1cc(O)c1ccccc12,"inconclusive: 0.165 µM [inhibitor, full curve]"
12,N#Cc1ccccc1OCC(=O)N1CCN(S(=O)(=O)c2ccc(Cl)cc2)CC1,active: 10.4 µM
13,CCOC(=O)C1(Cc2ccc(OC)cc2)CCN(C(=O)CN2CCN(CC)CC2)CC1,"inconclusive: 18.5 µM [inhibitor, single point]"
14,Cc1c(NC(=O)C(C)OC(=O)/C=C/c2ccc(OC(F)F)cc2)c(=O)n(-c2ccccc2)n1C (stereo not given),inactive
15,N/N=C/C(=N\Nc1ccc(Cl)cc1)C(=O)c1ccncc1,"inconclusive: 10.4 µM [inhibitor, single point]"
16,CCOC(=O)N1CCC(N2Cc3cccc(C(=O)Nc4ccc(OC)c(OC)c4)c3C2=O)CC1,"inconclusive: 1.04 µM [inhibitor, partial curve, poor fit]"
17,CCOc1ccc(C2/C(=C(/O)c3ccc(S(=O)(=O)N4CCCCC4)cc3)C(=O)C(=O)N2CCCOC)cc1OC (stereo not given),active: 3.7 µM
18,COC(=O)C1=C(c2ccc(F)cc2OCc2ccccc2)C[C@@H]2CC[C@H]1N2C(=O)NC1CCCCC1,active: 14.7 µM
19,COC(=O)C1=C(C)N(Cc2ccccc2)C(=NCc2cc(OC)c(OC)c(OC)c2)N[C@H]1c1ccccc1,"inconclusive: 13.1 µM [inhibitor, single point] and inconclusive: 233 nM [inhibitor, full curve, poor fit]"
20,COc1ccc(NC(=O)Cn2c(=O)n(-c3ccccc3)c(=O)c3sccc32)c(OC)c1,"inconclusive: 0.0033 µM [inhibitor, full curve, poor fit]"

# Gathered by group, the entries above containing a halogen.
row,SMILES,Potency
3,O=c1c2ccccc2ncn1-c1ccc([N+](=O)[O-])cc1Cl,"inconclusive: 9.28 µM [inhibitor, partial curve, poor fit]"
8,CC(C)OC(=O)C1C2C=CC3(CN(C(C)c4ccc(Br)cc4)C(=O)C13)O2 (stereo not given),active: 10.4 µM
9,COc1ccccc1-c1nnc2sc(COc3ccc(Cl)cc3)nn12,"inconclusive: 0.0037 µM [inhibitor, full curve, poor fit]"
12,N#Cc1ccccc1OCC(=O)N1CCN(S(=O)(=O)c2ccc(Cl)cc2)CC1,active: 10.4 µM
14,Cc1c(NC(=O)C(C)OC(=O)/C=C/c2ccc(OC(F)F)cc2)c(=O)n(-c2ccccc2)n1C (stereo not given),inactive
15,N/N=C/C(=N\Nc1ccc(Cl)cc1)C(=O)c1ccncc1,"inconclusive: 10.4 µM [inhibitor, single point]"
18,COC(=O)C1=C(c2ccc(F)cc2OCc2ccccc2)C[C@@H]2CC[C@H]1N2C(=O)NC1CCCCC1,active: 14.7 µM

# Further entries.

row,SMILES,Potency
1,CC1CCN(C2=NC(=O)/C(=C/c3ccc(O)cc3)S2)CC1,"inconclusive: 18.5 µM [inhibitor, single point]"
2,O=C(Nc1ccc(S(=O)(=O)N2CCc3ccccc32)cc1)C(F)(F)F,"inconclusive: 18.5 µM [inhibitor, single point]"
3,COCC(C)n1c(SCc2ccc(OC)c(F)c2)nc2ccccc2c1=O (stereo not given),"inconclusive: 6.57 µM [inhibitor, partial curve, poor fit]"
4,O=C(NCCSc1c[nH]c2ccccc12)c1ccc(Br)o1,active: 2.08 µM
5,COc1cc2c(cc1OC)CN(CC(=O)Nc1ccc(C)c(C)c1)CC2,"inconclusive: 1.04 µM [inhibitor, partial curve]"
6,CC1=C/C(=N\NC(=O)c2cccs2)CC(C)(C)C1,"inconclusive: 11.7 µM [inhibitor, single point]"
7,O=C(NC1=NCCS1)c1ccc(Cl)c(S(=O)(=O)N2CCCCC2)c1,"inconclusive: 18.5 µM [inhibitor, single point]"
8,COc1ccc(/C=N/NC(=O)c2ccc3c(c2)OCCO3)cc1[N+](=O)[O-],"inconclusive: 18.5 µM [inhibitor, single point]"
9,Cc1nn(-c2ccc(F)cc2)c2nc(N)c(C#N)c(-c3cccs3)c12,"inconclusive: 14.7 µM [inhibitor, partial curve, poor fit]"
10,CN1CCN(c2ccc(NC(=O)c3ccc(C(F)(F)F)cc3)cn2)CC1,"inconclusive: 9.28 µM [inhibitor, single point]"
11,CC1(C)CC(=O)C2=C(C1)NC(=S)C(C#N)C21CCCCC1 (stereo not given),"inconclusive: 4.15 µM [inhibitor, partial curve, poor fit]"
12,COc1ccc(CCNC(=O)C2CCN(S(=O)(=O)c3c(C)noc3C)CC2)cc1OC,"inconclusive: 14.7 µM [inhibitor, partial curve, poor fit]"
13,COC(C[C@H](O)[C@H](C)[C@@H](O)COCc1ccccc1)OC,inactive
14,Cc1ccc(-c2ccc(SCC(=O)NC3CCCC3)nn2)cc1,inactive
15,O=C(CSc1nc2ccccc2nc1N1CCCC1)Nc1ccc(F)cc1,"inconclusive: 10.4 µM [inhibitor, single point]"
16,Cc1ccc(S(=O)(=O)N(C)c2ccc(C)c([N+](=O)[O-])c2)cc1,"inconclusive: 4.15 µM [inhibitor, single point]"
17,C=CCc1cc(C=O)cc(OC)c1OCc1c(Cl)cccc1Cl,"inconclusive: 18.5 µM [inhibitor, partial curve, poor fit]"
18,O=C(O)c1cccc(Cn2c(Cl)c(/C=N/NC(=O)c3ccco3)sc2=O)c1,inactive
19,CN1CCN(CCC(=O)N2c3ccccc3Sc3ccc(C(F)(F)F)cc32)CC1,active: 10.7 µM
20,CCc1ccccc1N1C(=O)c2cccc3c(N4CCOCC4)c([N+](=O)[O-])cc(c23)C1=O,"inconclusive: 11.7 µM [inhibitor, single point]"
